According to article PMC9653400:
No constants are given. Whether binding was seen depends on the method and setting. Binding seen in cells or lysates may run through a third protein. Some entries that bind do so weakly or less than the wild type.

By UniProt entry, the sequences of proteins in these tests, tags left out. Residues count along the entry.
UniProt P42224: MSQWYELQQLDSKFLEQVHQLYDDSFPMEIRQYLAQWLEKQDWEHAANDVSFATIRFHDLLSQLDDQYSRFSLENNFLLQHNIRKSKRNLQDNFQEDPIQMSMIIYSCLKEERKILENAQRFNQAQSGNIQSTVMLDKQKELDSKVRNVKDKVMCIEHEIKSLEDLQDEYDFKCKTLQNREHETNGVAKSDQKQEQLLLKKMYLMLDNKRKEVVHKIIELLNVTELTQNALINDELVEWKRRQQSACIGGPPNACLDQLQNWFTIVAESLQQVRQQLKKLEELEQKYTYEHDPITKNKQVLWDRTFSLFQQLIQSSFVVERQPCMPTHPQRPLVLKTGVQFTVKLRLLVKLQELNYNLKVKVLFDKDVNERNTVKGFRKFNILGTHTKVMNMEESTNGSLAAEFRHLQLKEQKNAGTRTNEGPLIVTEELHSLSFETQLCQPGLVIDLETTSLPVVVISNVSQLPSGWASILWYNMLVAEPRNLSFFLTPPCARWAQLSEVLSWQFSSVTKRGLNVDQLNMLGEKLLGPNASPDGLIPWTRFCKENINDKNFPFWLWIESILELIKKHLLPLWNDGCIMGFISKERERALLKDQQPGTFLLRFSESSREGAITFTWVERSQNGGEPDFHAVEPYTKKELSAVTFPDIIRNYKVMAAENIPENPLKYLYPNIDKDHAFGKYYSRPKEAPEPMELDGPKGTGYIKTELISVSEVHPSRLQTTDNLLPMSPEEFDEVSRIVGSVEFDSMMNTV
UniProt Q8IY21: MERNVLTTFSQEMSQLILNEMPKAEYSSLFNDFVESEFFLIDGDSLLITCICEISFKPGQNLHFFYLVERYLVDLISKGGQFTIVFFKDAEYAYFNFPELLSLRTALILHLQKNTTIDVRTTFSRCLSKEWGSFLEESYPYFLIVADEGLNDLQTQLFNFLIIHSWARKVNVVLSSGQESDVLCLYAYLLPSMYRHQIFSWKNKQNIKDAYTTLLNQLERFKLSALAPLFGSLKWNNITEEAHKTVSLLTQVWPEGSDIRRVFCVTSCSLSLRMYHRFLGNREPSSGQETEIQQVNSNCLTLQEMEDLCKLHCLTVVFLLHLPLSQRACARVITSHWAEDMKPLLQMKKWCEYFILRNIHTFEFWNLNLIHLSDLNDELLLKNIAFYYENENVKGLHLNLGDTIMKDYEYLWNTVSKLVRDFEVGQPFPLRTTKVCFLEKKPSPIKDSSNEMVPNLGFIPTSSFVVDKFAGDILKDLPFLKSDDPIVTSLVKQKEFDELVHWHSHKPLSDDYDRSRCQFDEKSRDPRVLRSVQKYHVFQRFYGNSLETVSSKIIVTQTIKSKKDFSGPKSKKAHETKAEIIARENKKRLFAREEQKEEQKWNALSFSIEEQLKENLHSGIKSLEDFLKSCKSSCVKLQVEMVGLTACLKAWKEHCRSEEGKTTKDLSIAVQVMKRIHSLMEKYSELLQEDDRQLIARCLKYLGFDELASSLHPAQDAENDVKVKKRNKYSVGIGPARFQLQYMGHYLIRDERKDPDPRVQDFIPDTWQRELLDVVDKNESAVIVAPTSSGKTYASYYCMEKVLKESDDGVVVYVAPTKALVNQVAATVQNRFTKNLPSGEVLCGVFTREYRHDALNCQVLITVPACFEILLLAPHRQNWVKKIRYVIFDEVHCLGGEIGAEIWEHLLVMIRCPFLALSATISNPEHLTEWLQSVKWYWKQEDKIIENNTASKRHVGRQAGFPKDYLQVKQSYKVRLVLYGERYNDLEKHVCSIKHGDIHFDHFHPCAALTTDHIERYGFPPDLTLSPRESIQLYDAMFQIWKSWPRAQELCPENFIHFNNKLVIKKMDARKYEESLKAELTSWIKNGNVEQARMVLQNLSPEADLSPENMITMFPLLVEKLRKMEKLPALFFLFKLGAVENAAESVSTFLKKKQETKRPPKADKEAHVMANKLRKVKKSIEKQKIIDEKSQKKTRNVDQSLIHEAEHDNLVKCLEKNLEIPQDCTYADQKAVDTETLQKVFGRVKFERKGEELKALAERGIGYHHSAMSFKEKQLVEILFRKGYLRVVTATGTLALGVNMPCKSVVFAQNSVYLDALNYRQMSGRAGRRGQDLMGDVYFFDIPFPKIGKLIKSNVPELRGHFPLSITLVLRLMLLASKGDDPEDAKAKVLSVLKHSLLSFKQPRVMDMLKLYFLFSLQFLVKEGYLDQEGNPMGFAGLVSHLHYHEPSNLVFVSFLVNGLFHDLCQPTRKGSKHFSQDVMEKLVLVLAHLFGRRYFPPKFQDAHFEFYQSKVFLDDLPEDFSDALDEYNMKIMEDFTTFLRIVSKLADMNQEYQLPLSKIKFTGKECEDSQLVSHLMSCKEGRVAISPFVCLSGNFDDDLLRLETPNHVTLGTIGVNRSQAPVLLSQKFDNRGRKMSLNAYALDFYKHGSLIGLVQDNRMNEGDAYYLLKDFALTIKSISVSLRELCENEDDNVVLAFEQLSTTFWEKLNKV
UniProt Q9Y6N7, residues 26-1651: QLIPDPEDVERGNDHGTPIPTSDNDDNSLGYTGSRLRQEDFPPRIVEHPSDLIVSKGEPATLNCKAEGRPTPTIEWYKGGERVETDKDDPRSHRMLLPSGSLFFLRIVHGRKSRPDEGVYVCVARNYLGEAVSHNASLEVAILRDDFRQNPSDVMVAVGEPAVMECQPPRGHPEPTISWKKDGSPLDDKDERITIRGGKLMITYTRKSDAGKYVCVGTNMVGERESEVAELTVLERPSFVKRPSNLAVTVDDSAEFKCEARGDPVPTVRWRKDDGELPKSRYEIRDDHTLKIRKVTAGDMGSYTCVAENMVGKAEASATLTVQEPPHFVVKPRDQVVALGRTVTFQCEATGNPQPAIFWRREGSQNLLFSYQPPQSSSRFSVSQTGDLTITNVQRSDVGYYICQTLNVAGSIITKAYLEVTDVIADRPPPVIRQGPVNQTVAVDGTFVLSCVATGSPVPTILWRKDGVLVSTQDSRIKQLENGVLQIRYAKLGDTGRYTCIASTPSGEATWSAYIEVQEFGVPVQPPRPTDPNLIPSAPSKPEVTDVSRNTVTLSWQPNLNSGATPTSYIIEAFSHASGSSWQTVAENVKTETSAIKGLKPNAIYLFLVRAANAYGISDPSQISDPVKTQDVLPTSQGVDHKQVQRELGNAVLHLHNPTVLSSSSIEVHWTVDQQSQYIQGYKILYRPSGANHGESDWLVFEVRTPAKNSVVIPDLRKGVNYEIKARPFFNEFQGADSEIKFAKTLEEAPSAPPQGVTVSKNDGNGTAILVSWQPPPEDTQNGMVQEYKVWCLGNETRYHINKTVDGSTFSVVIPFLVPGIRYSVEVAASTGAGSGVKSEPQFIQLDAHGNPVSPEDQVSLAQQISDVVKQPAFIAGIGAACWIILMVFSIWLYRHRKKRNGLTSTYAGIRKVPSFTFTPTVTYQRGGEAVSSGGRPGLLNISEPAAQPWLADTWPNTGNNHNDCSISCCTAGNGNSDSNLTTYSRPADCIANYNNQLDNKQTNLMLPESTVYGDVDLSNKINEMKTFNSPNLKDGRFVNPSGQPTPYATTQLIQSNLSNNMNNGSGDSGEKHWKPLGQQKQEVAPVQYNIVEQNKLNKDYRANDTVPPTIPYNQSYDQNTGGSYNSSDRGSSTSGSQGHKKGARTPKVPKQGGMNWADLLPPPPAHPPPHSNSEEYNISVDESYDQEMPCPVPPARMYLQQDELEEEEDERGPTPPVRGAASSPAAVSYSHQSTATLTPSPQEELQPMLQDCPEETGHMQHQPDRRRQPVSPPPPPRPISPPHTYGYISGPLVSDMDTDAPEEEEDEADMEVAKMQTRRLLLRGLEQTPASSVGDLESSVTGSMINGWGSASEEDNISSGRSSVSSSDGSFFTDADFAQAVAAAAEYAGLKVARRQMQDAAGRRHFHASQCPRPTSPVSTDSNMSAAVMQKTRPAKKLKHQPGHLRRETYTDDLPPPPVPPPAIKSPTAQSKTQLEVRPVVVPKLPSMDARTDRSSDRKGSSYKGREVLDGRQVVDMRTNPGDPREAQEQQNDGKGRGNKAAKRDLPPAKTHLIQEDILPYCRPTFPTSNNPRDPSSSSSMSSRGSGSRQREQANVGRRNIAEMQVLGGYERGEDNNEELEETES

Columns and labels:
[1] = target: T1, LRCH4 (human (endogenous in Flo-1)) (UniProt O75427); experiment: cross-linking; in-situ DSS cross-linking (0.5 mM, 5 min, 37 °C, in PBS) of Flo-1 cells treated with 10 ng/ml IFNα14 for 24 h (untreated cells run beside them); tryptic cross-linked peptides by LC-MS/MS, identified with SIM-XL (K-K, K-S, K-N-terminus)
T1 sequence: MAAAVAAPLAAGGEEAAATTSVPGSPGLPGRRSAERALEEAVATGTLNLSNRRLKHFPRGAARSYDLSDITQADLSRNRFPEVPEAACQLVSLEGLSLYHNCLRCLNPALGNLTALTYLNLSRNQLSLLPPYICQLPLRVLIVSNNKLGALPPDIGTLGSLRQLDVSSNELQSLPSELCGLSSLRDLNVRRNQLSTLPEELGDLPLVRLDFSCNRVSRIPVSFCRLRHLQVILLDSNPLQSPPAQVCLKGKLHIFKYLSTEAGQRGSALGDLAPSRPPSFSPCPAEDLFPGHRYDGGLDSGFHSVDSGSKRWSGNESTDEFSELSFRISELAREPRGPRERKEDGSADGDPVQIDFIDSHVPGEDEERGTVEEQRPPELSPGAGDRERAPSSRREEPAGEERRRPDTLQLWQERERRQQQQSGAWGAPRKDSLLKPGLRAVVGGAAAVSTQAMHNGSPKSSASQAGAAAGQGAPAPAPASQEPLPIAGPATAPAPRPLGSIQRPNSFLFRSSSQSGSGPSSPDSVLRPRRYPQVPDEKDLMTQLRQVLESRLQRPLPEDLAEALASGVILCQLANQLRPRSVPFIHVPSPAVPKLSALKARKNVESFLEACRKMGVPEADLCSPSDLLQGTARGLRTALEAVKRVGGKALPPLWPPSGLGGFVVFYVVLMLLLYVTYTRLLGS

[2] = target: STAT1 (human (endogenous in Flo-1)) (UniProt P42224); experiment: cross-linking; in-situ DSS cross-linking (0.5 mM, 5 min, 37 °C, in PBS) of untreated Flo-1 cells (no IFNα); LC-MS/MS, SIM-XL
[3] = target: T2, USP18 (human (endogenous in Flo-1)) (UniProt Q9UMW8); experiment: as above
T2 sequence: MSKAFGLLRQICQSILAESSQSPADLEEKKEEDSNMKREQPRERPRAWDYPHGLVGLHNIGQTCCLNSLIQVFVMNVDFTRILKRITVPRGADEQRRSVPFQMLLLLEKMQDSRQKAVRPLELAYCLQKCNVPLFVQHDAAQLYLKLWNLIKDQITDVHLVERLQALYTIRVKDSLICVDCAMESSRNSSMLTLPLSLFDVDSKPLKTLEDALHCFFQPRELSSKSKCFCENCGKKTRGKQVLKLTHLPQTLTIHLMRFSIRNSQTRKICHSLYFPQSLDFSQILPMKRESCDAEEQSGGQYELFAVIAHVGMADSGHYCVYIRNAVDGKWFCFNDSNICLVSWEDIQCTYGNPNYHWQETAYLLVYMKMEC

[4] = target: STAT1 (human (endogenous in Flo-1)) (UniProt P42224); experiment: cross-linking; in-situ DSS cross-linking (0.5 mM, 5 min, 37 °C, in PBS) of Flo-1 cells treated with 10 ng/ml IFNα14 for 24 h (untreated cells run beside them); tryptic cross-linked peptides by LC-MS/MS, identified with SIM-XL (K-K, K-S, K-N-terminus)
[5] = target: T2, USP18 (human (endogenous in Flo-1)); experiment: as above
[6] = target: T3, MX1 (human (endogenous in Flo-1)) (UniProt P20591); experiment: as above
T3 sequence: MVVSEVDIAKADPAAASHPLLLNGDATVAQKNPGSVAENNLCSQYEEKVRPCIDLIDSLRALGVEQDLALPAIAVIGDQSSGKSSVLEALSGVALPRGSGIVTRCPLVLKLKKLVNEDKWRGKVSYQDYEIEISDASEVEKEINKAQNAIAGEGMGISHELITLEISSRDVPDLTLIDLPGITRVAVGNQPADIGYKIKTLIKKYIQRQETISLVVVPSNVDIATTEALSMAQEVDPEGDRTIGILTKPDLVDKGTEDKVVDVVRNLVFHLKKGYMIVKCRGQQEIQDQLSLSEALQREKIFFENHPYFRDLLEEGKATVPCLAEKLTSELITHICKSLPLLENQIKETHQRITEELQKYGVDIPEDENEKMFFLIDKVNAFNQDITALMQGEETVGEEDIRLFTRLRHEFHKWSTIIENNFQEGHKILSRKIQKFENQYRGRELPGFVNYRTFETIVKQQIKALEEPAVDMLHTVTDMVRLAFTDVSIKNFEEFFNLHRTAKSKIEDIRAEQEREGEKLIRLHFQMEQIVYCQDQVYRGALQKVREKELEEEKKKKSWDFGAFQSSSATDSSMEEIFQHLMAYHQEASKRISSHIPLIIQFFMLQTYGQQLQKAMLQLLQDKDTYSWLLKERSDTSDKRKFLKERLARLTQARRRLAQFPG

[7] = target: DDX60 (human (endogenous in Flo-1)) (UniProt Q8IY21); experiment: as above
[8] = target: ROBO1 (human (endogenous in Flo-1)) (UniProt Q9Y6N7); experiment: cross-linking; in-situ DSS cross-linking (0.5 mM, 5 min, 37 °C, in PBS) of untreated Flo-1 cells (no IFNα); LC-MS/MS, SIM-XL
[9] = target: ROBO1 (human (endogenous in Flo-1)) (UniProt Q9Y6N7); experiment: cross-linking; in-situ DSS cross-linking (0.5 mM, 5 min, 37 °C, in PBS) of Flo-1 cells treated with 10 ng/ml IFNα14 for 24 h (untreated cells run beside them); tryptic cross-linked peptides by LC-MS/MS, identified with SIM-XL (K-K, K-S, K-N-terminus)
[10] = target: STAT1 (human (endogenous in Flo-1)) (UniProt P42224); experiment: as above; remark: listed apart in the source
[11] = target: T2, USP18 (human (endogenous in Flo-1)); experiment: as above; remark: listed apart in the source

Q: With MDN1 (from UniProt Q9NU22 1-5596) as the molecule, how does the binding [1] read?
A: binds

Q: What does the source list for ROBO1 (from UniProt Q9Y6N7 26-1651)?
A: binding [2]: no binding (condition: untreated cells (without IFNα)); binding [3]: no binding (condition: untreated cells (without IFNα)); binding [4]: binds; binding [5]: binds

B1: OAS1 (protein, UniProt P00973 1-400)
chain: MMDLRNTPAKSLDKFIEDYLLPDTCFRMQINHAIDIICGFLKERCFRGSSYPVCVSKVVKGGSSGKGTTLRGRSDADLVVFLSPLTTFQDQLNRRGEFIQEIRRQLEACQRERAFSVKFEVQAPRWGNPRALSFVLSSLQLGEGVEFDVLPAFDALGQLTGGYKPNPQIYVKLIEECTDLQKEGEFSTCFTELQRDFLKQRPTKLKSLIRLVKHWYQNCKKKLGKLPPQYALELLTVYAWERGSMKTHFNTAQGFRTVLELVINYQQLCIYWTKYYDFKNPIIEKYLRRQLTKPRPVILDPADPTGNLGGGDPKGWRQLAQEAEAWLNYPCFKNWDGSPVSSWILLAESNSADDETDDPRRYQKYGYIGTHEYPHFSHRPSTLQAASTPQAEEDWTCTIL
Q: Which binding [6] does the source give for B1 here?
A: binds

B2: IFIT3 (protein, UniProt O14879 1-490)
chain: MSEVTKNSLEKILPQLKCHFTWNLFKEDSVSRDLEDRVCNQIEFLNTEFKATMYNLLAYIKHLDGNNEAALECLRQAEELIQQEHADQAEIRSLVTWGNYAWVYYHLGRLSDAQIYVDKVKQTCKKFSNPYSIEYSELDCEEGWTQLKCGRNERAKVCFEKALEEKPNNPEFSSGLAIAMYHLDNHPEKQFSTDVLKQAIELSPDNQYVKVLLGLKLQKMNKEAEGEQFVEEALEKSPCQTDVLRSAAKFYRRKGDLDKAIELFQRVLESTPNNGYLYHQIGCCYKAKVRQMQNTGESEASGNKEMIEALKQYAMDYSNKALEKGLNPLNAYSDLAEFLETECYQTPFNKEVPDAEKQQSHQRYCNLQKYNGKSEDTAVQHGLEGLSISKKSTDKEEIKDQPQNVSENLLPQNAPNYWYLQGLIHKQNGDLLQAAKCYEKELGRLLRDAPSGIGSIFLSASELEDGSEEMGQGAVSSSPRELLSNSEQLN
Q: B2 was tested. Which binding [7] did it give?
A: binds

B3: OAS3 (protein, UniProt Q9Y6K5 1-1087)
chain: MDLYSTPAAALDRFVARRLQPRKEFVEKARRALGALAAALRERGGRLGAAAPRVLKTVKGGSSGRGTALKGGCDSELVIFLDCFKSYVDQRARRAEILSEMRASLESWWQNPVPGLRLTFPEQSVPGALQFRLTSVDLEDWMDVSLVPAFNVLGQAGSGVKPKPQVYSTLLNSGCQGGEHAACFTELRRNFVNIRPAKLKNLILLVKHWYHQVCLQGLWKETLPPVYALELLTIFAWEQGCKKDAFSLAEGLRTVLGLIQQHQHLCVFWTVNYGFEDPAVGQFLQRQLKRPRPVILDPADPTWDLGNGAAWHWDLLAQEAASCYDHPCFLRGMGDPVQSWKGPGLPRAGCSGLGHPIQLDPNQKTPENSKSLNAVYPRAGSKPPSCPAPGPTGAASIVPSVPGMALDLSQIPTKELDRFIQDHLKPSPQFQEQVKKAIDIILRCLHENCVHKASRVSKGGSFGRGTDLRDGCDVELIIFLNCFTDYKDQGPRRAEILDEMRAQLESWWQDQVPSLSLQFPEQNVPEALQFQLVSTALKSWTDVSLLPAFDAVGQLSSGTKPNPQVYSRLLTSGCQEGEHKACFAELRRNFMNIRPVKLKNLILLVKHWYRQVAAQNKGKGPAPASLPPAYALELLTIFAWEQGCRQDCFNMAQGFRTVLGLVQQHQQLCVYWTVNYSTEDPAMRMHLLGQLRKPRPLVLDPADPTWNVGHGSWELLAQEAAALGMQACFLSRDGTSVQPWDVMPALLYQTPAGDLDKFISEFLQPNRQFLAQVNKAVDTICSFLKENCFRNSPIKVIKVVKGGSSAKGTALRGRSDADLVVFLSCFSQFTEQGNKRAEIISEIRAQLEACQQERQFEVKFEVSKWENPRVLSFSLTSQTMLDQSVDFDVLPAFDALGQLVSGSRPSSQVYVDLIHSYSNAGEYSTCFTELQRDFIISRPTKLKSLIRLVKHWYQQCTKISKGRGSLPPQHGLELLTVYAWEQGGKDSQFNMAEGFRTVLELVTQYRQLCIYWTINYNAKDKTVGDFLKQQLQKPRPIILDPADPTGNLGHNARWDLLAKEAAACTSALCCMGRNGIPIQPWPVKAAV
Q: How did the binding [8] turn out when B3 was run?
A: no binding (condition: untreated cells (without IFNα))

Q: And the binding [2]?
A: no binding (condition: untreated cells (without IFNα))

Q: What about the binding [3] of the same molecule?
A: no binding (condition: untreated cells (without IFNα))

Q: And the binding [9]?
A: binds

Q: And the binding [10]?
A: binds

Q: What about the binding [11] of the same molecule?
A: binds
